Measurements taken from patent US20120270300A1, “PRODUCTION OF RECOMBINANT FACTOR IX IN A HUMAN HEPATOCYTE CELL LINE” (Universite Claude Bernard Lyon I, priority 2009, published 2012).
Where two headings read alike, the source gives them in different places.

How the values were obtained:
[1] = MALDI-TOF mass spectrometry (negative mode, after ZrO2) of sulfation and phosphorylation of the FIX activation peptide; set-up: key: −: absence; (+): presence, weak intensity; +: presence, medium intensity; +++: presence, strong intensity; settings: semi-quantitative; for abundance of activation peptide form D: deletion of alanine 194, free form; for abundance of activation peptide form D + P + S: deletion of alanine 194, phosphate and sulfate; for abundance of activation peptide form C: deletion of threonine 194, free form; for abundance of activation peptide form C + G: deletion of threonine 194, monosaccharides; for abundance of activation peptide form C + P + S: deletion of threonine 194, phosphate and sulfate; for abundance of activation peptide form B: variant T/A at 194, free form; for abundance of activation peptide form B + G: variant T/A at 194, monosaccharides; for abundance of activation peptide form B + P + S: variant T/A at 194, phosphate and sulfate; for abundance of activation peptide form B + P + S + G / abundance of activation peptide form B + P: variant T/A at 194, phosphate; for abundance of activation peptide form B + P + S + G / abundance of activation peptide form A + P + S + G: sulfate, monosaccharides; for abundance of activation peptide form B + S: variant T/A at 194, sulfate; for abundance of activation peptide form A / abundance of activation peptide form A + P + S: wild-type peptide [192-226]; for abundance of activation peptide form A: free form; for abundance of activation peptide form A + P + S: phosphate and sulfate; for abundance of activation peptide form A + P + S + G: wild-type peptide, phosphate
[2] = FIX from HepG2 cells with viral vectors, published by Chen et al.; ng of FIX/24 hours/10^6 cells; cited from earlier work
[3] = FIX concentration by Asserachrom IX:Ag ELISA in culture medium and cell extracts

Substance	abundance of activation peptide form D [1]	abundance of activation peptide form D + P + S [1]	abundance of activation peptide form C [1]	abundance of activation peptide form C + G [1]	abundance of activation peptide form C + P + S [1]	abundance of activation peptide form B [1]	abundance of activation peptide form B + G [1]	abundance of activation peptide form B + P + S [1]	abundance of activation peptide form B + P + S + G [1]	abundance of activation peptide form B + P [1]	abundance of activation peptide form B + S [1]	abundance of activation peptide form A [1]	abundance of activation peptide form A + P + S [1]	abundance of activation peptide form A + P + S + G [1]	ELISA [2] [ng/mL]	ELISA ([3]; Huh7-CD4 clone, ng of FIX/24 hours/10^6 cells, five assays) [ng/mL]	intracellular FIX level (ELISA) ([3]; Huh7 cells transiently transfected with pcDNAFIXwt, 36 h)
Benefix: marketed recombinant FIX (Wyeth) synthesized by CHO cells stably transfected with the FIX cDNA	−	−	+++	+	−	+++	+	−	−	−	(+)	−	−	−			
FIX/GCF9SN-MPSV: FIX produced with a viral vector in the HepG2 hepatocyte cell line by Chen et al., 1997															76		
FIX/GCNCF9: FIX produced with a viral vector in the HepG2 hepatocyte cell line by Chen et al., 1997															128		
FIXwt: recombinant human factor IX expressed in the human hepatocyte cell line Huh7 (transient, or stable clone Huh7-CD4) and secreted into the supernatant	−	−	+++	+	−	+++	+	+++	(+)	+++	−	−	−	−		461 ± 12	0.05 μg/ml of cell lysate
Mononine: plasma FIX prepared from pools of human plasma, sold under the name Mononine, CSL Behring	−	+++	−	−	+	−	−	+	−	−	−	−	+++	+			
